# Data: PubChem BioAssay AID504467 (National Center for Advancing Translational Sciences (NCATS), 2011)
# Out of some 330,000 compounds screened, about 7,700 (2.3%) were called active. The inconclusive results got no clear call from the source; some entries with a clear call stand among them for comparison. The call rests on the fitted dose curve; in most records, active means well fitted inhibition curve with a large enough effect; inconclusive means small, poorly fitted or top-dose-only effect, or effect the other way; inactive means flat fitted curve, though single readings scatter. Where the call is inconclusive, the potency comes from a doubtful curve fit.
# Assay: qHTS screen for small molecules that inhibit ELG1-dependent DNA repair in human embryonic kidney (HEK293T) cells expressing luciferase-tagged ELG1; further: nearly all actives have a fitted effect of over 55% in size
# Details: HEK293T ELG1-luciferase reporter, luminescence, 16 h, DNA damage induced by 5-fluorouridine; series mostly up to 46.1 µM
# How it was run: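 Cells (2,000 per well) received 5-fluorouridine plus test compound or DMSO and were incubated 16 hr at 37 °C, 5% CO2. Luciferase activity was read by luminescence 30 min after ONE-Glo addition; signal suppression marked inhibition of damage-induced ELG1 function.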
# Potency means the concentration at half of the fitted maximal effect.
row,SMILES,Potency
1,Cc1ccc2nc(N/N=C\c3ccc([N+](=O)[O-])o3)nc(-c3ccccc3)c2c1,active: 20.6 µM
2,COc1ccc(CNC(=O)C2CCN(C(=O)N3CCOc4ccc(C)cc43)CC2)cc1,"inconclusive: 18.4 µM [inhibitor, partial curve, poor fit]"
3,CCN1C(=O)c2cccc3c(S(=O)(=O)N4CCNCC4)ccc1c23,"inconclusive: 18.3 µM [activator, partial curve]"
4,CN(C)CCC(=O)N1c2ccccc2Sc2ccc(Cl)cc21,"inconclusive: 23.1 µM [inhibitor, partial curve, poor fit]"
5,COc1ccc(C2CC(c3cccc(Cl)c3)=NN2c2ccc(S(N)(=O)=O)cc2)cc1 (stereo not given),inactive
6,C[n+]1ccc(CC2C(=[N+]([O-])[O-])C=Nc3ncnn32)cc1 (stereo not given),inactive
7,CC1CN/C(=C\C(=O)c2ccc(Br)cc2)C(=O)N1 (stereo not given),"inconclusive: 1.16 µM [activator, partial curve]"
8,CSc1ccc(/C=N/NC(=O)c2ccc(O)cc2)cc1,"inconclusive: 14.6 µM [activator, partial curve]"
9,CN1CCN(CCCNC(=O)c2cn(C3CCCCC3)c(=O)c3c2c2ccccc2n3C)CC1,"inconclusive: 18.4 µM [activator, single point]"
10,Cc1nc2ccccc2c2oc(C(=O)N3CCN(C(=O)c4ccco4)CC3)cc12,"inconclusive: 16.4 µM [inhibitor, partial curve, poor fit]"
11,O=C1CCCC/C1=C/Nc1ccc(C(=O)O)cc1,"inconclusive: 16.4 µM [activator, partial curve]"
12,COc1ccc(CCNC(=O)CSc2nnc3ccc(-c4ccccn4)nn23)cc1OC,"inconclusive: 14.6 µM [inhibitor, partial curve, poor fit]"
13,CCCCn1c(N)c(N(CCC(C)C)C(=O)Cc2ccc(S(=O)(=O)N3CCOCC3)s2)c(=O)[nH]c1=O,"inconclusive: 20.6 µM [inhibitor, single point]"
14,CCCCCCc1cc2cc(-c3nnc(-c4ccccc4)o3)c(=O)oc2cc1O,"inconclusive: 3.26 µM [inhibitor, full curve]"
15,O=C(c1ccccc1)c1cnc[nH]1,"inconclusive: 18.3 µM [activator, single point]"
16,N#C/C(=C\Nc1ccccc1O)c1nc2ccccc2o1,"inconclusive: 29.1 µM [inhibitor, single point]"
17,CCCOC1CCCN(C(=O)c2cc(COc3cncc(Cl)c3)on2)C1 (stereo not given),"inconclusive: 5.17 µM [activator, partial curve]"
18,CCOc1ccc(-c2ccc(SCC(=O)NCC3CCCO3)nn2)cc1 (stereo not given),"inconclusive: 20.6 µM [activator, partial curve]"
19,CC(C)Cc1nnc(NC(=O)c2cc(-c3ccncc3)nc3ccccc23)s1,"inconclusive: 32.6 µM [inhibitor, single point]"
20,O=C1C=C(Nc2ccc(Cl)cc2)CC(c2ccc(Cl)cc2)C1 (stereo not given),"inconclusive: 35.5 µM [activator, single point]"
21,Cc1onc(-c2c(F)cccc2Cl)c1C(=O)Nc1cccc(S(=O)(=O)NC2=NCCC2)c1,inactive
22,C#CCN(C)CCCOc1ccc(Cl)cc1Cl,"inconclusive: 25.9 µM [activator, single point]"
23,CCCC(=O)Nc1ccc(Cl)c(NC(=S)NC(=O)c2ccco2)c1,"inconclusive: 18.4 µM [inhibitor, partial curve]"
24,Cc1cc(C)n(-c2ccc(C(=O)OCC(=O)N(CC(C)C)C3CCS(=O)(=O)C3)cc2)n1 (stereo not given),"inconclusive: 2.59 µM [activator, full curve, poor fit]"

row,SMILES,Potency
1,O=C(COC(=O)CNS(=O)(=O)c1ccc(F)c(F)c1F)NCCc1ccccc1,"inconclusive: 16.4 µM [activator, partial curve]"
2,CCOc1ccc2nc(SCC(=O)c3ccc(Cl)s3)sc2c1,"inconclusive: 20.6 µM [activator, single point]"
3,Cc1nc(N2CCN(c3ccccn3)CC2)c2c(C)c(C(=O)Nc3ccc(Br)cc3C)sc2n1,"inconclusive: 16.4 µM [inhibitor, single point]"
4,Cn1c(=O)c2c(nc(Sc3ncccn3)n2Cc2ccc(Cl)cc2)n(C)c1=O,active: 16.4 µM
5,Cc1cs/c(=N\N=C\c2cccc([N+](=O)[O-])c2)n1Cc1ccco1,"inconclusive: 20.6 µM [activator, single point]"
6,Cc1ccc(/C=C/C(=O)OCC(=O)c2ccc3c(c2)NC(=O)CO3)o1,active: 11.6 µM
7,Cc1ccsc1/C=C1/SC(=O)N(CC(=O)N2CCCC2)C1=O,"inconclusive: 9.2 µM [activator, partial curve]"
8,O=S(=O)(c1ccc2c(c1)OCCO2)N1CCC(c2nc3ccccc3s2)CC1,"inconclusive: 2.91 µM [inhibitor, full curve]"
9,C=CCn1cc(C(=O)N2CCN(c3ccccc3)CC2)c(=O)c2cc(S(=O)(=O)N3CCCC3)ccc21,inactive
10,CC(OC(=O)CCC(=O)c1ccc(Cl)s1)C(=O)NC1(C#N)CCCCC1 (stereo not given),"inconclusive: 15.8 µM [activator, single point]"
11,COc1ccc2cc3c(N)c(C(=O)N4CCCC4)sc3nc2c1,"inconclusive: 2.91 µM [activator, partial curve]"
12,CC1CC(C)CN(CCC(=O)Nc2ccc(Br)cc2)C1 (stereo not given),inactive
13,CCCOC(=O)c1c(NC(=O)CCC(=O)O)sc2c1CCCCC2,inactive
14,Cc1ccc(C(N)=S)c(C)c1,inactive
15,CSc1ccccc1NC(=S)NC1CCCC1,inactive
16,C=CCn1c(=O)c2c3c(sc2n2c(Nc4ccc(OC)cc4)nnc12)CCCC3,active: 8.2 µM
17,CN(C)c1ccc(-c2nnc(-c3cccnc3)o2)cc1,"inconclusive: 3.55 µM [activator, full curve]"
18,COc1ccc(C(=O)NC2CCN(CC(=O)NCc3cccc(OC)c3)CC2)cc1,inactive
19,CCn1c(SCC(=O)NC2CCCCC2)nnc1-c1ccccc1F,inactive
20,O=C(Nc1ccc(C(=O)N2CCCC2)cc1)c1ccc(F)cc1Cl,inactive
21,COc1ccc(Nc2ncnc3c2c(C)c(C)n3CCO)cc1,"inconclusive: 8.2 µM [activator, partial curve]"
22,Cc1cc(C)n(C(=O)CN2C(=O)COc3ccccc32)n1,"inconclusive: 32.6 µM [activator, partial curve, poor fit]"
23,CCOC(=O)c1sc2nc(C)nc(SC(C)C(=O)N(C)c3ccccc3)c2c1C (stereo not given),"inconclusive: 29.1 µM [inhibitor, single point]"
24,Cc1cc(C(=O)Nc2ccc(F)cc2F)on1,"inconclusive: 16.4 µM [activator, partial curve, poor fit]"

row,SMILES,Potency
1,O=C(CN1CCC(n2nnc3cc(F)ccc32)CC1)Nc1ccccc1N1CCOCC1,"inconclusive: 20.6 µM [inhibitor, partial curve, poor fit]"
2,COc1ccccc1CNCc1cc(=O)oc2c(C)c(C)ccc12,"inconclusive: 29.1 µM [inhibitor, single point]"
3,CCCCNC(=O)C1C2C=CC3(CN(Cc4ccc(C)cc4)C(=O)C13)O2 (stereo not given),inactive
4,COc1ccc(/C(N)=N/OC(=O)c2ccc(C)c([N+](=O)[O-])c2)cc1OC,"inconclusive: 23.1 µM [activator, single point]"
5,Nc1nc(CSC(=S)N2CCOCC2)nc(Nc2ccccc2)n1,"inconclusive: 14.6 µM [activator, partial curve]"
6,O=C(NCc1ccc(Cl)cc1)C(=O)NCC1OCCN1S(=O)(=O)c1ccc2c(c1)OCCO2 (stereo not given),"inconclusive: 16.4 µM [inhibitor, partial curve]"
7,CC(=O)Nc1ccc(NC(=O)CSc2nnc(NC(=O)c3cccc(F)c3)s2)cc1,"inconclusive: 13 µM [activator, partial curve]"
8,COc1ccc(NCC(=O)Nc2ccc(C#N)cc2)cc1Cl,active: 25.9 µM
9,CC(=O)Oc1ccccc1N(C(C)=O)S(=O)(=O)c1ccc2ccccc2c1,inactive
10,CC(C)CN(C(=O)COc1ccc([N+](=O)[O-])cc1)c1c(N)n(CC(C)C)c(=O)[nH]c1=O,inactive
11,CC(C)(C)[C@H]1COC(=O)CC/C=C\C[C@@H](CC(=O)N(CCO)Cc2ccccc2)C(=O)N1,"inconclusive: 18.3 µM [activator, partial curve, poor fit]"
12,CCCCc1nc(NCCN2CCOCC2)c(C#N)c2c1COC(C)(C)C2,active: 11.6 µM
13,O=C(OCC(=O)N1CCCC1=O)c1ncc(Cl)c(Cl)c1Cl,inactive
14,O=C(Cn1nnc(-c2ccccc2Cl)n1)NCc1ccc2c(c1)OCO2,inactive
15,C=CCOc1ccc(/C(CC)=N/O)c(OC)c1,"inconclusive: 20.6 µM [activator, single point]"
16,Cc1cc2cc(CNC(=S)NC3CCCCC3)ccc2[nH]1,"inconclusive: 29.1 µM [inhibitor, single point]"
17,Cc1ccc(NC(=O)C2=C(c3ccccc3)S(=O)(=O)CCS2(=O)=O)cc1,"inconclusive: 29.1 µM [inhibitor, single point]"
18,COc1ccc(N2CCN(C(=O)C3CCN(S(=O)(=O)c4ccc5c(c4)oc(=O)n5C)CC3)CC2)cc1,inactive
19,Cc1cccc(NC(=O)NCc2ccccn2)c1,"inconclusive: 18.4 µM [activator, single point]"
20,CCN(CC)S(=O)(=O)c1cccc(-c2nnc(SCC(=O)NC)n2N)c1,inactive
21,CC(C)Cn1nc(NC(=O)C(C)(C)C)c2cc3ccccc3nc21,inactive
22,CN(C)c1ccc(CNc2nc3ccccc3s2)cc1,"inconclusive: 0.326 µM [activator, full curve]"

# A few values from the results shown:
# Entry for Cc1cccc(NC(=O)NCc2ccccn2)c1 under Potency: inconclusive: 18.4 µM [activator, single point]
# Entry for O=C(OCC(=O)N1CCCC1=O)c1ncc(Cl)c(Cl)c1Cl under Potency: inactive
# Entry for CC(C)CN(C(=O)COc1ccc([N+](=O)[O-])cc1)c1c(N)n(CC(C)C)c(=O)[nH]c1=O under Potency: inactive
